Assay results: patent publication US20080176744A1 (priority 2005, published 2008)
Some of these results come from one statement about several compounds together. For part of these data: For at least one compound, name, drawing or mass did not settle the structure.

Key:
[1] = test system: Phytophthora infestans; type: in vivo; settings: potted tomato plants sprayed with 250 ppm, infected next day, visual rating after 6 days; untreated plants 85-90% infected
[2] = test system: Plasmopara viticola; experiment: Activity against peronospora of grapevines caused by Plasmopara viticola, 7 day protective treatment; type: in vivo; settings: potted vines sprayed with 500 ppm, inoculated 7 days after treatment, visual rating of leaf undersides; untreated plants 75% infected
[3] = test system: Phytophthora infestans; type: cell-based; settings: 125 ppm, microtiter plate, absorption at 405 nm on the seventh day after inoculation

SMILES	infection [1]	infection [2]	relative growth [3]
CCCCCCCCc1c(N)nc(C#N)nc1CC [I-91]	at most 20%		
CCCCCCCCc1c(N)nc(-n2cncn2)nc1CC [I-1, 6-ethyl-5-octyl-2-[1,2,4]-triazol-1-ylpyrimidin-4-ylamine]		at most 15%	
CCCCCCCCc1c(C)nc(SCC2CCCO2)nc1N (stereo not drawn) [I-28]		at most 15%	
CCCCCCCCc1c(C)nc(N2CCOCC2)nc1N [I-56]		at most 15%	
CCCCCCCCc1c(N)nc(SC)nc1CC [I-3, 6-ethyl-2-methylsulfanyl-5-octylpyrimidin-4-ylamine]			at most 11%
CCCCCCCCc1c(C)nc(SCCCCCC)nc1N [I-23]		at most 15%	
CCCCCCCCc1c(C)nc(C)nc1N [I-16]		at most 15%	
CCCCCCCCc1c(C)nc(N(C)CC)nc1N [I-48]	at most 20%	at most 15%	
COc1nc(C)c(CCC(C)CC(C)(C)C)c(N)n1 (stereo not drawn) [I-54]	at most 20%		
Cc1nc(N2CCCC2)nc(N)c1CCC(C)CC(C)(C)C (stereo not drawn) [I-76]		at most 15%	
CCCCCCCCc1c(C)nc(SCCC)nc1N [I-20]		at most 15%	
CCCCCCCCc1c(C)nc(S)nc1N [I-11]		at most 15%	
CCCCCCCCc1c(C)nc(CC)nc1N [I-49]		at most 15%	
CCCCCCCCc1c(C)nc(SCc2ccccc2)nc1N [I-10]		at most 15%	
CC=CCSc1nc(C)c(CCCCCCCC)c(N)n1 [I-27]		at most 15%	
CCCCCCCCc1c(C)nc(SCC(N)=O)nc1N [I-42]	at most 20%	at most 15%	
CCCCC(CC)Cc1c(C)nc(N2CCCC2)nc1N (stereo not drawn) [I-79]	at most 20%	at most 15%	
C=CCS(=O)(=O)c1nc(C)c(CCCCCCCC)c(N)n1 [I-13]		at most 15%	
CCCCCCCCc1c(C)nc(-n2cccn2)nc1N [I-72]		at most 15%	

SMILES	infection [1]	infection [2]	relative growth [3]
CCCCCCCCc1c(C)nc(N(CCCC)CCCC)nc1N [I-65]	at most 20%	at most 15%	
CCCCCCCCc1c(C)nc(S(=O)(=O)Cc2ccccc2)nc1N [I-14]		at most 15%	
CCCCCCCCc1c(C)nc(SCCSCC)nc1N [I-26]		at most 15%	
CCCCCCCCc1c(C)nc(OC)nc1N [I-17]		at most 15%	
Cc1nc(N2CCCCC2)nc(N)c1CCC(C)CC(C)(C)C (stereo not drawn) [I-77]		at most 15%	
CCCCCCCCc1c(C)nc(N2CCCC(C)(C)C2)nc1N [I-57]	at most 20%	at most 15%	
CCCCCCCCc1c(C)nc(N2CCCCC2)nc1N [I-60]	at most 20%	at most 15%	
CCCCC(CC)Cc1c(C)nc(N(C)C)nc1N (stereo not drawn) [I-78]		at most 15%	
C=CCSc1nc(C)c(CCC(C)CC(C)(C)C)c(N)n1 (stereo not drawn) [I-55]	at most 20%	at most 15%	
CCCCCCCCc1c(C)nc(N(CC)CC)nc1N [I-40]		at most 15%	
CCCCCCCCc1c(C)nc(N(C)C)nc1N [I-47]		at most 15%	
CCCCCCCCc1c(C)nc(N2CC(C)OC(C)C2)nc1N (stereo not drawn) [I-59]	at most 20%	at most 15%	
CCCCCCCCc1c(C)nc(SCC(C)C)nc1N [I-36]		at most 15%	
CCCCCCCCCc1c(C)nc(N(C)C)nc1N [I-61]		at most 15%	
CCCCc1c(C)nc(N(C)C)nc1N [I-38]		at most 15%	
CCCCCCCCc1c(C)nc(N(CCC)CCC)nc1N [I-63]	at most 20%	at most 15%	
CCCCCCCCCCc1c(C)nc(N(C)C)nc1N [I-80]		at most 15%	
CCCCCCCCc1c(C)nc(-n2nc(C)cc2C)nc1N [I-71]	at most 20%		
CCCCCCCCc1c(N)nc(C(N)=O)nc1CC [I-4]	at most 20%	at most 15%	at most 11%

SMILES	infection [1]	infection [2]	relative growth [3]
CCCCCCCCc1c(C)nc(OC(C)C)nc1N [I-51]	at most 20%	at most 15%	
CCCCCCCCCc1c(C)nc(N2CCOCC2)nc1N [I-68]	at most 20%	at most 15%	
CCCCCCCCc1c(C)nc(SC(C)COC)nc1N (stereo not drawn) [I-39]		at most 15%	
CCCCCCCCc1c(C)nc(-n2cncn2)nc1N [I-73]	at most 20%	at most 15%	
CCCCCCCCc1c(C)nc(N2CCCC2)nc1N [I-46]	at most 20%	at most 15%	
CCCCCc1c(C)nc(N(C)C)nc1N [I-70]		at most 15%	
CCCCCCCCc1c(N)nc(S(C)(=O)=O)nc1CC [I-2, 6-ethyl-2-methylsulfonyl-5-octylpyrimidin-4-ylamine]	at most 20%	at most 15%	
CCCCc1c(C)nc(SC)nc1N [I-33]		at most 15%	
CCCCCCCCc1c(C)nc(C#N)nc1N [I-88]	at most 20%		
CCCCCCc1c(C)nc(SC)nc1N [I-35]	at most 20%	at most 15%	
CCCCCCCCc1c(C)nc(CCC)nc1N [I-50]		at most 15%	
Cc1nc(C)c(CCC(C)CC(C)(C)C)c(N)n1 (stereo not drawn) [I-53]	at most 20%	at most 15%	
CCCCCCCCc1c(C)nc(C(C)C)nc1N [I-43]	at most 20%	at most 15%	
CCCCCCCCCc1c(C)nc(N(CC)CC)nc1N [I-62]	at most 20%	at most 15%	
CCCCCCCCc1c(C)nc(S(C)(=O)=O)nc1N [I-12]		at most 15%	
CCCCCCCCc1c(C)nc(-c2ccccc2)nc1N [I-41]	at most 20%	at most 15%	
CCCCCCCCCc1c(C)nc(N2CCCCC2)nc1N [I-66]		at most 15%	
CCCCCCCCc1c(C)nc(SCCOCC)nc1N [I-22]		at most 15%	
CCCCCCCCc1c(C)nc(OCC)nc1N [I-75]		at most 15%	
